How the values were obtained:
HCT116 cells = test: MTT cytotoxicity assay, HCT116 cells; type: cell-based, human; conditions: for SI1: SI1 = IC50(HEK-293)/IC50(HCT116); for SI2: SI2 = IC50(HDF-A)/IC50(HCT116)
Method: (§1) Cells were cultured in a humidified incubator at 37 °C under 5% CO2. Human colorectal carcinoma (HCT116) cells were grown in McCoy’s 5A Medium (ATCC, Catalog No. 30-2007), human breast adenocarcinoma (MCF-7) and human dermal fibroblasts (HDF-A) cells were maintained in Dulbecco’s Modified Eagle’s Medium (DMEM, Sigma D5546) supplemented with 2 mM L-glutamine. Human embryonic kidney (HEK293) cell line was cultured in Dulbecco’s Modified Eagle’s Medium (DMEM, Gibco 31966-021). All culture media were supplemented with 1% Penicillin-Streptomycin (Sigma-Aldrich, P4333) and 10% fetal bovine serum (Gibco, 10270-106). Cells were sub-cultured at approximately 80–90% confluency to maintain the culture in the logarithmic growth phase.
(§2) Cells were seeded at a 96-well plate at the density of 7 × 10^3 cells per well and allowed to grow for 24 h. Afterward, the medium was aspirated and fresh medium was added (200 μL) with serial dilutions (100 − 10 μM) of tested compounds or DMSO at corresponding concentrations as a control. Following 48 h of incubation, the medium was replaced with phenol red-free medium (100 μL) containing MTT (3-(4,5-dimethylthiazol-2-yl)-2,5-diphenyl-2H-tetrazolium bromide, 0.5 mg/mL) and replaced in the incubator for 4 h. The formed formazan was dissolved in DMSO (100 μL) followed by incubation of the mixture at 37 °C for 10 min. The absorbance was measured at 540 nm. After blank subtraction, the half maximal effective concentration (EC50) was calculated by GraphPad Prism software (GraphPad Software Inc, San Diego, CA, USA).

MCF-7 cells = test: MTT cytotoxicity assay, MCF-7 cells; type: cell-based, human; conditions: for SI3: SI3 = IC50(HEK-293)/IC50(MCF-7); for SI4: SI4 = IC50(HDF-A)/IC50(MCF-7)
Method: as §1, §2

SMILES	SI1 (HCT116 cells)	SI3 (MCF-7 cells)	SI4 (MCF-7 cells)	SI2 (HCT116 cells)
Nc1ccc2c(c1)Oc1ccc3ccccc3c1C=C2 [Compound 3h, benzo[b]naphtho[1,2-f]oxepin-9-amine]	0.7			
CC(=O)Oc1ccc2c(c1)Oc1cc([N+](=O)[O-])ccc1C=C2 [Compound 2j, 7-nitrodibenzo[b,f]oxepin-3-yl acetate]	1.6	2.4		
O=[N+]([O-])c1ccc(/C=C/c2ccc(O)cc2O)c([N+](=O)[O-])c1 [Compound 1i, (E)-2,4-dihydroxy-2′,4′-dinitrostilbene]	1.0	0.8	0.6	0.8
COc1ccc(O)c(/C=C/c2ccc([N+](=O)[O-])cc2[N+](=O)[O-])c1 [Compound 1d, (E)-2-hydroxy-5-methoxy-2′,4′-dinitrostilbene]	1.8	0.7	0.9	2.2
O=[N+]([O-])c1ccc(/C=C/c2ccccc2O)c([N+](=O)[O-])c1 [Compound 1a, (E)-2-hydroxy-2′,4′-dinitrostilbene]		0.5	1.1	
O=[N+]([O-])c1ccc2c(c1)Oc1cc(O)ccc1C=C2 [Compound 2i, 7-nitrodibenzo[b,f]oxepin-3-ol]	1.6	1.2	1.4	1.7
COc1ccc(/C=C/c2ccc([N+](=O)[O-])cc2[N+](=O)[O-])c(O)c1 [Compound 1c, (E)-2-hydroxy-4-methoxy-2′,4′-dinitrostilbene]	0.9	0.7	1.0	1.1
